Test results as given in patent US8889727B2, “Topical antifungal agent” (Meiji Seika Pharma Co., Ltd., priority 2011, dated 2014).
At least one structure is not confirmed: it was looked up by name or label, or the drawing left a doubt.

Columns and labels:
[1] = system: T. mentagrophytes ATCC18748; assay: Measurement of antifungal activity (MIC, WST8 growth inhibition); type: cell-based; details: 80% growth inhibition concentration; T. mentagrophytes ATCC18748, RPMI1640/MOPS, 28° C., 3 days
Protocol: (§1) The compounds for evaluation were dissolved in dimethyl sulfoxide (DMSO) and used. As the test medium, RPMI1640 medium containing 0.165 M 3-morpholino propane sulfonic acid (MOPS) was used. As the test strain, T. mentagrophytes ATCC18748 or T. rubrum ATCC10218 was used. 100 μL of the test strain each at a concentration of 1×10^4 conidia/mL was dispensed, mixed with compounds for evaluation on 96 well half area plate so that the concentration of DMSO becomes 1%, and cultured at 28° C. for 3 days (for T. mentagrophytes) or for 4 days (for T. rubrum). Then, 5 μL of Cell Counting Kit8 (WST8) was added and the absorbances at 450 nm and 595 nm was measured as background. Subsequently, they were incubated at 28° C. for 5 hours (for T. mentagrophytes) or overnight (for T. rubrum) to color, and again the absorbances at 450 nm and 595 nm was measured, and then calculated the growth inhibition percentages using the differences from the background, and 80% growth inhibition concentration was regarded as MIC (μg/ml). Measurement of antifungal activity was conducted by the following method. Compounds for evaluation were dissolved in dimethyl sulfoxide (DMSO) and used. As the test medium, RPMI1640 medium containing 0.165 M 3-morpholinopropane sulfonic acid (MOPS) was used. […] Then, 5 μL of Cell Counting Kit8 (WST8) was added and the absorbances at 450 nm and 595 nm was measured as background. […]

T. rubrum ATCC10218 = assay: as above; type: cell-based; details: 80% growth inhibition concentration; T. rubrum ATCC10218, RPMI1640/MOPS, 28° C., 4 days
Protocol: as §1

Cc1cc(C)n(-c2ccc(C(N)=O)cc2O)n1 [Example 39, 4-(3,5-Dimethyl-1H-pyrazol-1-yl)-3-hydroxy benzamide]
MIC (T. mentagrophytes) [1]: C (16-32 μg/ml)
MIC (T. rubrum) (T. rubrum ATCC10218): C (16-32 μg/ml)
